The structures appear in SMILES notation. Counter-ions that a name gives are not always drawn. ± gives the standard deviation of the averaged measurements. The list shows a part of the results. Baselines shift from plate to plate; read single values as rough.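 The cells are a mouse kidney inner medullary collecting duct line, silenced either for the ciliary gene Rpgrip1l or with a non-targeting control siRNA.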

In experiment [1] the test system is mIMCD3. Kind of experiment: robust z score of cell number vs plate controls; higher = more cells (less cytotoxic). The conditions noted are these: 10 µM, 48 h.
Experiment [2] has as its system mIMCD3. Description: robust z score of cilia incidence (% cells with single cilium) vs plate controls; higher = more ciliated cells. To be noted: 10 µM; 48 h; siRNA: siScr.
Experiment [3] concerns mIMCD3. Kind of experiment: robust z score of cilia incidence (% cells with single cilium) vs plate controls; higher = more ciliated cells (rescue of cilia loss). The conditions noted are these: 10 µM; 48 h; siRNA: siRpgrip1l.

In the case of `CCOC(=O)c1c(C)[nH]c2ccc3c(c12)CN1CCc2cc(OC)ccc2C1O3` (stereo not given), the “robust z score of cell number” value in experiment [1] (siRNA: siRpgrip1l) is -35 ± 30; in experiment [1] (siRNA: siScr), -37 ± 23. The entries for the “robust z score of cilia incidence” value in experiment [2] and in experiment [3] were -75.8 ± 48 and -81.4 ± 61, respectively.
As for `O=[N+]([O-])c1cccc2c[nH]nc12`, the “robust z score of cell number” value in experiment [1] (siRNA: siRpgrip1l) is -6.42 ± 2.7; in experiment [1] (siRNA: siScr), -4.76 ± 1.1. Further, the “robust z score of cilia incidence” value in experiment [2] is 2.69 ± 0.44; in experiment [3], 0.335 ± 3.1.
For `CC(C)c1ccccc1S(=O)(=O)c1cc(N)c2ncccc2c1[N+](=O)[O-]` the same measures were -29.5 ± 16, -43.5 ± 30, -8.28 ± 2.7 and -18.9 ± 11.
Turning to `Nc1nnc(Sc2ncc([N+](=O)[O-])s2)s1`, the “robust z score of cell number” value in experiment [1] (siRNA: siRpgrip1l) was -43.8 ± 57; in experiment [1] (siRNA: siScr) it was -5.87 ± 4.9. In addition, the “robust z score of cilia incidence” value in experiment [2] was -1.25 ± 2.1; in experiment [3], -8.11 ± 0.98.
As for `CCOC(=O)N1CCC(=C2c3ccc(Cl)cc3CCc3cccnc32)CC1` [Loratidine], the “robust z score of cilia incidence” value was -29.7 ± 24 in experiment [2] and -44.9 ± 34 in experiment [3].
As for `O=[N+]([O-])c1ccccc1S(=O)(=O)NCC1CCC(CNCC2CCc3ccccc3C2)CC1` (stereo not given) [NTNCB hydrochloride], the entries for the “robust z score of cell number” value in experiment [1] (siRNA: siRpgrip1l) and in experiment [1] (siRNA: siScr) were -41.2 ± 27 and -55.1 ± 29, respectively. For the same compound, the “robust z score of cilia incidence” value is -32.9 ± 15 in experiment [2] and -58.6 ± 14 in experiment [3].
For `N=C(N)NC(=N)Nc1ccccc1` [1-Phenylbiguanide hydrochloride] the same measures were -3.66 ± 1.3, -4.9 ± 3.2, 0.401 ± 1.9 and -8 ± 2.2.
Taken in the same sequence, the figures for `CCCCC/N=c1\ccn(Cc2ccccc2)c2ccccc12` were -259 ± 190, -33.9 ± 7.6, -12.7 ± 10 and -11.6 ± 5.5.
As for `CCC(C)(C)C(=O)O[C@H]1C[C@@H](C)C=C2C=C[C@H](C)[C@H](CC[C@@H]3C[C@@H](O)CC(=O)O3)[C@H]21` [Simvastatin], the “robust z score of cilia incidence” value in experiment [2] was -101 ± 53; in experiment [3], -107 ± 94.
Turning to `CCCCOc1cc(CC2CNC(=O)N2)ccc1OC` (stereo not given), the “robust z score of cell number” value in experiment [1] (siRNA: siRpgrip1l) was 1.89 ± 5.9; in experiment [1] (siRNA: siScr), -7.14 ± 3.8. The “robust z score of cilia incidence” value in experiment [2] was 1.94 ± 4.8; in experiment [3], -5.82 ± 4.2.
Taken in the same sequence, the figures for `N[C@H](C(=O)O)c1ccc(O)c(C(=O)O)c1` [(S)-3-Carboxy-4-hydroxyphenylglycine] were 8.32 ± 11, -0.85 ± 3.9, 2.14 ± 3.5 and -3.35 ± 5.1.

The values are drawn from the supplement of paper PMC12009310.
